In PMC5830412:
These are yes or no findings as the source states them, for the method shown. In cells and extracts the contact can be indirect. Some results given as binding are weak or reduced against the parent protein; the word gives no strength.

The chains behind the UniProt entries cited, without tags or fusion partners.
UniProt P38198: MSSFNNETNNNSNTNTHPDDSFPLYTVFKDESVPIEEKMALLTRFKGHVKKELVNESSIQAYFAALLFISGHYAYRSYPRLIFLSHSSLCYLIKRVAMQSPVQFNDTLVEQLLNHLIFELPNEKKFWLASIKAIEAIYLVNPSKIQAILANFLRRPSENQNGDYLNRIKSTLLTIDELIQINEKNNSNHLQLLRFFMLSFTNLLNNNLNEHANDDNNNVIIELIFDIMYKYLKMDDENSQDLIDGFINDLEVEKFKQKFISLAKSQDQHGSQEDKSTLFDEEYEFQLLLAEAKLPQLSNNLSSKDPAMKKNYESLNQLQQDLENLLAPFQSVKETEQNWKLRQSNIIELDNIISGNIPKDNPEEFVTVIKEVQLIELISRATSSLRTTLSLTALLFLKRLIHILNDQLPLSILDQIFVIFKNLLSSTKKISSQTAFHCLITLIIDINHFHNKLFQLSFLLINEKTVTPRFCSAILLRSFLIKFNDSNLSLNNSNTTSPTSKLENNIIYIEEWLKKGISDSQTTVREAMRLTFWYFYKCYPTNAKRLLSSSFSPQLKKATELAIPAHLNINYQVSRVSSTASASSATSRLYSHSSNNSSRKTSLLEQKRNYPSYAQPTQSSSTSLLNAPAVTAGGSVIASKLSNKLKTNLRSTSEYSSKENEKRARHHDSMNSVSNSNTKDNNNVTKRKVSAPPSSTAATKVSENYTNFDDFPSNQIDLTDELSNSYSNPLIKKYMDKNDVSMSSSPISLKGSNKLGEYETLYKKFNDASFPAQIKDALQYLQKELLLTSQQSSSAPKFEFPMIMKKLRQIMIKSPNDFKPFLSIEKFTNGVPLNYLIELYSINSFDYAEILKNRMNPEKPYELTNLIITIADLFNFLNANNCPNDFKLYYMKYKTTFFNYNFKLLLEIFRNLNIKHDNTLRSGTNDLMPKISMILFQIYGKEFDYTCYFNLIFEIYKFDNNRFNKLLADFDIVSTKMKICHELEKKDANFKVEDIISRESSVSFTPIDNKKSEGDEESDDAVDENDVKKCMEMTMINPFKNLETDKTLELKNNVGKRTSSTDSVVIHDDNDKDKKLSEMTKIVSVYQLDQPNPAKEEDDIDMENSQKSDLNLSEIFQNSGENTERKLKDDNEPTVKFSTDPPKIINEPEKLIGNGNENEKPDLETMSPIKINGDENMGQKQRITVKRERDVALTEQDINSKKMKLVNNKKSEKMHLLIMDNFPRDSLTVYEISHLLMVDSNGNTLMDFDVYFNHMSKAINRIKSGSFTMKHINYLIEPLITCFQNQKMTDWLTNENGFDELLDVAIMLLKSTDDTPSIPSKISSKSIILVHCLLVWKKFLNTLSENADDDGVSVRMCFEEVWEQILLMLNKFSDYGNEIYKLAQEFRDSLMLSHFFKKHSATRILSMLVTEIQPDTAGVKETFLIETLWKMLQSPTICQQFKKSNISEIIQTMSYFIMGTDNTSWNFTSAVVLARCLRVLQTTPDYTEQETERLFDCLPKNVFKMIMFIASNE

How the values were obtained:
Spc105 (S. cerevisiae) [1] = biological target: T1, Spc105 (S. cerevisiae) (UniProt P53148); assay: co-IP; purification on anti-FLAG agarose from lysates of cycling cells or cells arrested with nocodazole for 3.5 h; western blot with anti-myc and anti-FLAG-HRP; for Spc105-6A the WT Spc105 was depleted with IAA
T1 sequence: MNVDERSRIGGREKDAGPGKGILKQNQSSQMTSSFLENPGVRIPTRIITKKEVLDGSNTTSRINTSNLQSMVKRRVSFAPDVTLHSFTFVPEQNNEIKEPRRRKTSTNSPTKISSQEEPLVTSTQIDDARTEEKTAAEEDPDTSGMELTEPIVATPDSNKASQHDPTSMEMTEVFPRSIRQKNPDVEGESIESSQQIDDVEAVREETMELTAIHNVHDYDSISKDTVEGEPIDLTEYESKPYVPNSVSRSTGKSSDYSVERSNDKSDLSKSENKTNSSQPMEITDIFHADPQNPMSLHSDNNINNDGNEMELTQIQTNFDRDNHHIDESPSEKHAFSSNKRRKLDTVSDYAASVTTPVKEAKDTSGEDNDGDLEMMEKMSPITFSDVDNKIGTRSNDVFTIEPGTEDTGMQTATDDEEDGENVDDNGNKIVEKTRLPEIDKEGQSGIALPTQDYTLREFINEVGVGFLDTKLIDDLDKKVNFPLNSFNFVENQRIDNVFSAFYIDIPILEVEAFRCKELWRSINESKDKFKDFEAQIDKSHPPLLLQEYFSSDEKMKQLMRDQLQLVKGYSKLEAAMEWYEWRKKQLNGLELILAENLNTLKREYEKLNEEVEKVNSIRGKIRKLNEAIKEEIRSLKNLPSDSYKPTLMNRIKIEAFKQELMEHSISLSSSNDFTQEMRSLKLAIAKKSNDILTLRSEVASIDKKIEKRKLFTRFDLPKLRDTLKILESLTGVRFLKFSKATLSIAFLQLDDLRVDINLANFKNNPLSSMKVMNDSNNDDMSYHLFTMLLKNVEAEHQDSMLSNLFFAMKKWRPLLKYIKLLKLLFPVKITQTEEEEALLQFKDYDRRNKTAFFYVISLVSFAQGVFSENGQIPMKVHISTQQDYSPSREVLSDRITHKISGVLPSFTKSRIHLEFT

Spc105 (S. cerevisiae) [2] = biological target: T1, Spc105 (S. cerevisiae); assay: co-IP; cells treated with nocodazole; no figure is pointed to for this result

binding (Spc105 (S. cerevisiae) [1])	binding (Spc105 (S. cerevisiae) [2])	Molecule
binds	–	Stu1 (from UniProt P38198 1-1513)
–	no binding	Slk19 (protein, UniProt Q08581 1-821) MNEVPTTPVRLILGQAQQREQNSENCSQERNPRTFNSEPDSSFNSPGSSQFVIHPHEPLEKEKDEKQDLDRSIDYGRSSALNNKNNANPLENIDINKMFDDKKSDSGTNDDKGGASTSDKHVLALNYSPIRVEMNSSEKRSDKNVDVDENDKEGSHINKKLKLQLESVPDLKQSSTKDIINDKEEIMSSPMAIDMIETNISPNKFIINDGVERNDSFNINTDTLKLENDINEKQQEEDFIKSNSNNVVNIDNAYKEKEDEENDITNSHINRLTPLYETSARESNSNEEGRNDYDDDNQLDIRHDNFQIVAKRNEELTDQIYHLNQMLNSLISKNESLSFQYEKLNKNHQLLIDLTNEKLDKLNTERESDIAKVEKFKKRIKELNTEIKVLNSNQKILQEKFDASITEVNHIKGEHENTVNTLQQNEKILNDKNVELENMKAELKGNNDKLSEYETTLNDLNSRIVQLNDKIESTDIVLKSKENELDNLKLSLKETLSISKDFNDSDLIGQINELISTKNNLQQKMDDLNNLNDDNLKVVQDKLIKNEETLKLKEAEIDSLNSEMDELKKQITSKDDEFKMWQSKYETVEDEAKIRNAEVTELNGDIEDLKESKLHLEETITELENKVHKLENECELEKQKFEKTSLELESLQLKNSNIQAEHIKELENLHENLISLQNELKISSDRITTLTKENEVLMEQNNNNNNSVTLSNDQKDRDDEKIKSLGKQVQDWKEKYEAKEKDTNKRLKLLAEDLYIQYSSKHEQKVKLLKKGYENKYQNKFDQLNLENKTLSEEIEQLNKQLSSEREEKQELLKLLENEKK
